Out of some 300,000 compounds screened, about 5,400 (1.8%) were called active. The shares of active, inactive and inconclusive entries below differ from those in the screen. Calls follow the shape of the full dose curve; tested in HEK293 cells. Where the call is inconclusive, the potency comes from a doubtful curve fit.
Experiment: qHTS for inhibitors of binding or entry into cells for Marburg Virus
Conditions: Marburg virus pseudotyped entry inhibition, cell reporter; activity change, negative = inhibition: at 37.8 µM (top of the series) unless noted
% is scaled to controls: 0 for no effect and ±100 for the full control effect; potency is read from the fitted curve at half-maximal effect.

SMILES	Potency	activity change, negative = inhibition
CCCOc1ccc(C(=O)NCCc2ccccc2)cc1	inconclusive: 5.62 µM [inhibitor, full curve, poor fit]	
Cn1cnc(S(=O)(=O)Nc2ccc(C(F)(F)F)cc2)c1	inconclusive: 35.5 µM [inhibitor, single point]	
CCOC(=O)c1cnc(-n2nc(C)cc2C)nc1Nc1ccc(N(C)C)cc1	inconclusive: 5.8 µM [inhibitor, full curve, poor fit]	
OC(CNc1nc2ccccc2s1)c1ccccc1 (stereo not drawn)		inactive: 15.3%
CCC(C)(C(=O)NC1CCCCC1)N(CC1CCCO1)C(=O)Cc1cccs1 (stereo not drawn)	inconclusive: 0.562 µM [inhibitor, full curve, poor fit]	
Cc1cc(=O)n2[nH]c(-c3ccc(C(C)(C)C)cc3)cc2n1	inconclusive: 29.1 µM [inhibitor, single point]	
CN(Cc1cccc(Cl)c1Cl)C(=O)c1cc(S(=O)(=O)N2CCOCC2)ccc1F	inconclusive: 8.91 µM [inhibitor, partial curve, poor fit]	
CC(NC(=O)/C(C#N)=C/c1ccc([N+](=O)[O-])o1)c1ccccc1 (stereo not drawn)	inconclusive: 15.8 µM [inhibitor, partial curve, poor fit]	
Cc1cc(NC(=O)c2ccc(N3C(=O)C4C5C=CC(C5)C4C3=O)cc2)no1 (stereo not drawn)	inconclusive: 28.2 µM [activator, partial curve, poor fit]	
Cc1ccc(C(=O)NC2CCC(C)CC2)o1 (stereo not drawn)	inconclusive: 35.5 µM [activator, single point]	
Cc1cc(-c2nc(-c3ccncc3)no2)ccc1[N+](=O)[O-]	inconclusive: 14.1 µM [inhibitor, single point]	
Cc1nn(C)c(C(=O)NN)c1Cl		inconclusive: 5.06% [activator] [at 46.1 µM]
CCOc1ccc(C(C(=O)NCC2CCCO2)N(C(=O)c2snc(C(N)=O)c2N)c2cccc(F)c2)cc1 (stereo not drawn)	inconclusive: 14.1 µM [inhibitor, partial curve, poor fit]	
Cn1c(NCc2ccco2)nc2c1c(=O)n(Cc1ccc(Cl)c(Cl)c1)c(=O)n2C		inactive: -23.7% [at 46.1 µM]
O=C(NCc1ccco1)c1cccc(NC(=O)c2ccco2)c1	inconclusive: 0.0058 µM [activator, full curve, poor fit]	
CCCn1c(SCC(=O)Nc2cc(S(=O)(=O)N3CCOCC3)ccc2OC)n[nH]c1=O	inconclusive: 3.55 µM [inhibitor, partial curve, poor fit]	
COC(=O)c1ccc(NC(=S)NC(=O)c2cccnc2)cc1		inactive: 20.1% [at 46.1 µM]
CC(C)CC1C(=O)N(Cc2cn(Cc3ccco3)nn2)CCS(=O)(=O)N1Cc1ccc(-c2ccc(Cl)c(Cl)c2)cc1 (stereo not drawn)	active: 25 µM	

Arranged by heavy-atom count (smallest number first): 3 of the compounds above.
SMILES	Potency	activity change, negative = inhibition
Cc1cc(-c2nc(-c3ccncc3)no2)ccc1[N+](=O)[O-]	inconclusive: 14.1 µM [inhibitor, single point]	
CCOC(=O)c1cnc(-n2nc(C)cc2C)nc1Nc1ccc(N(C)C)cc1	inconclusive: 5.8 µM [inhibitor, full curve, poor fit]	
CCOc1ccc(C(C(=O)NCC2CCCO2)N(C(=O)c2snc(C(N)=O)c2N)c2cccc(F)c2)cc1 (stereo not drawn)	inconclusive: 14.1 µM [inhibitor, partial curve, poor fit]	

— PubChem BioAssay AID540276 (National Center for Advancing Translational Sciences (NCATS), 2011)
